{
  "source": "paper PMC6956814",
  "about": "“Deubiquitinase USP28 inhibits ubiquitin ligase KLHL2-mediated uridine-cytidine kinase 1 degradation and confers sensitivity to 5'-azacytidine-resistant human leukemia cells” (Theranostics, 2020)",
  "molecular_target": "T1, Flag-tagged UCK1 (uridine-cytidine kinase 1) (human) (UniProt Q9HA47)",
  "T1 sequence": "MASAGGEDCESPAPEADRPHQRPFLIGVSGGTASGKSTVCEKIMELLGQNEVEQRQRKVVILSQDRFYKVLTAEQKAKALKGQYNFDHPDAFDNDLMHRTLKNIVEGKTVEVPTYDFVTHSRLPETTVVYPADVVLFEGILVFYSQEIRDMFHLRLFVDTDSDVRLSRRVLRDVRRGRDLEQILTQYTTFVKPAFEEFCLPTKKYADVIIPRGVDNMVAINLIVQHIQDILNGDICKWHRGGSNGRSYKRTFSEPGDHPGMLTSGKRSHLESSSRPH",
  "test": "affinity purification with mass spectrometry; Flag-tagged UCK1 expressed in HEK293T (methods: HEK293) cells, purified with an anti-Flag antibody, MS/MS",
  "note": "No constants are given. Whether binding was seen depends on the method and setting. In cells and extracts the contact can be indirect. A yes stands for co-enrichment or nearness to the bait. Other partners may have been found. Tags and fused reporters may be left off the sequences shown.",
  "data": [
    {"binder": "KLHL2 (Kelch Like Family Member 2), endogenous (protein, UniProt O95198 1-593) METPPLPPACTKQGHQKPLDSKDDNTEKHCPVTVNPWHMKKAFKVMNELRSQNLLCDVTIVAEDMEISAHRVVLAACSPYFHAMFTGEMSESRAKRVRIKEVDGWTLRMLIDYVYTAEIQVTEENVQVLLPAAGLLQLQDVKKTCCEFLESQLHPVNCLGIRAFADMHACTDLLNKANTYAEQHFADVVLSEEFLNLGIEQVCSLISSDKLTISSEEKVFEAVIAWVNHDKDVRQEFMARLMEHVRLPLLPREYLVQRVEEEALVKNSSACKDYLIEAMKYHLLPTEQRILMKSVRTRLRTPMNLPKLMVVVGGQAPKAIRSVECYDFKEERWHQVAELPSRRCRAGMVYMAGLVFAVGGFNGSLRVRTVDSYDPVKDQWTSVANMRDRRSTLGAAVLNGLLYAVGGFDGSTGLSSVEAYNIKSNEWFHVAPMNTRRSSVGVGVVGGLLYAVGGYDGASRQCLSTVECYNATTNEWTYIAEMSTRRSGAGVGVLNNLLYAVGGHDGPLVRKSVEVYDPTTNAWRQVADMNMCRRNAGVCAVNGLLYVVGGDDGSCNLASVEYYNPTTDKWTVVSSCMSTGRSYAGVTVIDKPL", "values": [
      {"measurement": "binding", "result": "binds"}
    ]}
  ]
}
